This list was built around the results that the source calls inconclusive (neither active nor inactive); the mix of calls is not that of the screen. For some assays here: Where the call is inconclusive, the potency comes from a doubtful curve fit. Calls of active or inactive are those of the source. Calls follow the shape of the dose curve; as a rule, active = well fitted curve in the direction sought with a large enough effect; inconclusive = small, poorly fitted or top-dose-only effect, or another doubt; inactive = no such curve, though single readings can be large; an effect the other way counts as inactive or inconclusive.
What was measured:
[1] = Quantitative High-Throughput drug screen in 47 multiple myeloma cell lines against the NCATS MIPE library collection: JIM1_ECACC cell viability assay (AID 1918964); details: JIM1 myeloma viability, CellTiter-Glo ATP luminescence, 48 h; viability (% of DMSO): at 45.8 µM (top of the series)
Outline: (§1)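 We plated 500 myeloma cells per well, pinned in MIPE 4.0 compounds, and incubated for 48 hours at 37C. ATP was then quantified with CellTiter-Glo, with DMSO and media-only wells defining 100% and 0%.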

[2] = Quantitative High-Throughput drug screen in 47 multiple myeloma cell lines against the NCATS MIPE library collection: INA6_PLB cell viability assay (AID 1918965; also: nearly all actives have a fitted effect of over 55% in size); details: INA6 myeloma viability, CellTiter-Glo ATP luminescence, 48 h; viability (% of control): at 45.8 µM (top of the series)
Outline: (§2)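 qHTS of the MIPE 4.0 collection: 500 myeloma cells/well, 48 h drug exposure at 37C in 5% CO2, then CellTiter-Glo for 5 min at room temperature before luminescence reading.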

[3] = Quantitative High-Throughput drug screen in 47 multiple myeloma cell lines against the NCATS MIPE library collection: JJN3_DSMZ cell viability assay (AID 1918966; also: nearly all actives have a fitted effect of over 50% in size); details: JJN3 myeloma cells viability, CellTiter-Glo ATP, 48 h; series mostly up to 45.8 µM
Outline: as §1

[4] = Quantitative High-Throughput drug screen in 47 multiple myeloma cell lines against the NCATS MIPE library collection: Karpas25_ECACC cell viability assay (AID 1918968; also: nearly all actives have a fitted effect of over 35% in size); details: Karpas25 myeloma viability, CellTiter-Glo ATP, 48 h; viability (% of control): at 45.8 µM (top of the series)
Outline: as §1

[5] = Quantitative High-Throughput drug screen in 47 multiple myeloma cell lines against the NCATS MIPE library collection: KMS20_JCRB cell viability assay (AID 1918973); details: CellTiter-Glo ATP, 48 h; viability (% of DMSO): at 45.8 µM (top of the series); also: nearly all actives have a fitted effect of over 45% in size
Outline: as §1

[6] = Quantitative High-Throughput drug screen in 47 multiple myeloma cell lines against the NCATS MIPE library collection: KMS21BM_JCRB cell viability assay (AID 1918974); details: ATP luminescence, 48 h; viability: at 45.8 µM (top of the series) unless noted
Outline: as §1

[7] = Quantitative High-Throughput drug screen in 47 multiple myeloma cell lines against the NCATS MIPE library collection: KMS26_JCRB cell viability assay (AID 1918975); details: KMS26 myeloma cells viability, CellTiter-Glo ATP, 48 h; viability (% of DMSO): at 45.8 µM (top of the series); also: nearly all actives have a fitted effect of over 45% in size
Outline: (§3)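 Viability readout: CellTiter-Glo luminescence following 5 min room-temperature incubation with reagent. Prior exposure: 48 h, 37C, humidified 5% CO2, 500 cells per well.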

[8] = Quantitative High-Throughput drug screen in 47 multiple myeloma cell lines against the NCATS MIPE library collection: MMM1_PLB cell viability assay (AID 1918976); also: nearly all actives have a fitted effect of over 35% in size
Outline: (§4)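 Viability after 48 h drug exposure was measured as ATP-dependent luminescence. Cells, 500 per well, sat at 37 °C under 5% CO2; DMSO wells set 100%, media-only wells 0%.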

[9] = Quantitative High-Throughput drug screen in 47 multiple myeloma cell lines against the NCATS MIPE library collection: MOLP8_DSMZ cell viability assay (AID 1918977); details: MOLP8 myeloma viability, CellTiter-Glo ATP luminescence, 48 h; viability (% of control): at 45.8 µM (top of the series); also: nearly all actives have a fitted effect of over 45% in size
Outline: as §4

[10] = Quantitative High-Throughput drug screen in 47 multiple myeloma cell lines against the NCATS MIPE library collection: MM1S_ATCC cell viability assay (AID 1918980); also: nearly all actives have a fitted effect of over 45% in size
Outline: as §4

[11] = Quantitative High-Throughput drug screen in 47 multiple myeloma cell lines against the NCATS MIPE library collection: MM1R_ATCC cell viability assay (AID 1918981); also: nearly all actives have a fitted effect of over 35% in size
Outline: as §4

[12] = Quantitative High-Throughput drug screen in 47 multiple myeloma cell lines against the NCATS MIPE library collection: LP1_DSMZ cell viability assay (AID 1918982); also: nearly all actives have a fitted effect of over 35% in size
Outline: as §4

[13] = Quantitative High-Throughput drug screen in 47 multiple myeloma cell lines against the NCATS MIPE library collection: KMS27_JCRB cell viability assay (AID 1918970); details: KMS27 myeloma cells, CellTiter-Glo ATP viability, 48 h; viability (% of DMSO): at 45.8 µM (top of the series); also: nearly all actives have a fitted effect of over 30% in size
Outline: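 ATP-based viability (CellTiter-Glo luminescence) is measured in cells treated 48 h with approved and investigational drugs at 37 °C. Controls are DMSO-only wells for full viability and media-only wells for none.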

[14] = Quantitative High-Throughput drug screen in 47 multiple myeloma cell lines against the NCATS MIPE library collection: KMS12BM_JCRB cell viability assay (AID 1918971); also: nearly all actives have a fitted effect of over 35% in size
Outline: as §3

[15] = Quantitative High-Throughput drug screen in 47 multiple myeloma cell lines against the NCATS MIPE library collection: KMS12PE_JCRB cell viability assay (AID 1918972); details: KMS12PE myeloma viability, CellTiter-Glo ATP, 48 h; viability: at 45.8 µM (top of the series); also: nearly all actives have a fitted effect of over 30% in size
Outline: as §2

[16] = Quantitative High-Throughput drug screen in 47 multiple myeloma cell lines against the NCATS MIPE library collection: NCIH929_DSMZ cell viability assay (AID 1918978); also: nearly all actives have a fitted effect of over 35% in size
Outline: as §4

[17] = Quantitative High-Throughput drug screen in 47 multiple myeloma cell lines against the NCATS MIPE library collection: OCIMY1_PLB cell viability assay (AID 1918979); also: nearly all actives have a fitted effect of over 35% in size
Outline: as §4

[18] = Quantitative High-Throughput drug screen in 47 multiple myeloma cell lines against the NCATS MIPE library collection: KMS28PE_JCRB cell viability assay (AID 1918983); also: nearly all actives have a fitted effect of over 35% in size
Outline: as §4

Measured: Potency
Potency is read from the fitted curve at half-maximal effect.

COC(=O)C[C@](O)(CCCC(C)(C)O)C(=O)O[C@@H]1C(OC)=C[C@]23CCCN2CCc2cc4c(cc2[C@H]13)OCO4
inactive: [1] | [9] | [10] | [12]
inconclusive: [2] 0.0833 µM [rising, full curve, poor fit] | [3] 1.18 µM [cytotoxic, full curve, poor fit] | [4] 20.9 µM [cytotoxic, partial curve, poor fit] | [5] 2.35 µM [cytotoxic, partial curve, poor fit] | [6] 37.2 µM [rising, single point] | [7] 2.35 µM [cytotoxic, full curve, poor fit] | [8] 0.0264 µM [cytotoxic, full curve, poor fit] | [11] 2.96 µM [cytotoxic, full curve, poor fit]

Clc1ccc(C(c2ccccc2Cl)C(Cl)Cl)cc1 (stereo not given)
active: [14] 18.7 µM | [7] 18.7 µM | [8] 20.9 µM | [17] 26.4 µM | [11] 14.8 µM | [18] 23.5 µM
inconclusive: [1] 0.0332 µM [cytotoxic, full curve, poor fit] | [2] 16.6 µM [cytotoxic, partial curve, poor fit] | [3] 20.9 µM [cytotoxic, partial curve, poor fit] | [4] 23.5 µM [cytotoxic, partial curve] | [13] 5.9 µM [cytotoxic, partial curve, poor fit] | [15] 5.26 µM [cytotoxic, partial curve, poor fit] | [5] 14.8 µM [cytotoxic, partial curve, poor fit] | [6] 33.2 µM [rising, single point] | [16] 26.4 µM [cytotoxic, partial curve] | [10] 18.7 µM [cytotoxic, single point] | [12] 23.5 µM [cytotoxic, partial curve]

OC[C@H]1O[C@@H](Oc2ccc(O)cc2)[C@H](O)[C@@H](O)[C@H]1O
inconclusive: [1] 4.69 µM [cytotoxic, full curve, poor fit] | [2] 14.8 µM [cytotoxic, partial curve] | [3] 13.2 µM [cytotoxic, partial curve, poor fit] | [13] 26.4 µM [cytotoxic, single point] | [14] 0.0037 µM [rising, full curve, poor fit] | [15] 0.0012 µM [rising, full curve, poor fit] | [8] 0.0526 µM [rising, full curve] | [16] 14.8 µM [cytotoxic, partial curve] | [17] 0.0042 µM [rising, full curve, poor fit] | [10] 0.0026 µM [rising, full curve, poor fit]
inactive: [4] | [5] | [9] | [11]

O=C(NCCO[N+](=O)[O-])c1cccnc1
active: [10] 4.69 µM
inconclusive: [2] 0.001 µM | [4] 0.0264 µM [rising, full curve, poor fit] | [13] 1.66 µM [rising, single point] | [14] 0.0372 µM [rising, full curve, poor fit] | [15] 0.0021 µM [rising, full curve, poor fit] | [5] 0.0019 µM [rising, full curve, poor fit] | [6] 0.0019 µM [rising, full curve, poor fit] | [7] 0.0021 µM [rising, full curve, poor fit] | [9] 2.96 µM [rising, partial curve, poor fit] | [11] 2.64 µM [rising, partial curve, poor fit]
inactive: [1] | [3] | [8] | [12]

Cc1cc(O)c2c(c1)C(=O)c1cccc(O)c1C2=O
inconclusive: [1] 0.935 µM [cytotoxic, full curve, poor fit] | [14] 11.8 µM [cytotoxic, single point] | [15] 26.4 µM [cytotoxic, partial curve, poor fit] | [5] 1.18 µM [rising, full curve, poor fit] | [6] 4.18 µM [rising, partial curve, poor fit] | [8] 0.0026 µM [rising, full curve, poor fit] | [10] 7.43 µM [rising, single point] | [11] 0.001 µM [cytotoxic]
inactive: [2] | [3] | [13] | [9] | [12]

CCOC(=O)c1c(C)n(C)c2ccc(O)cc12
inactive: [4] | [5] | [7] | [9] | [18]
inconclusive: [1] 1.87 µM [cytotoxic, partial curve, poor fit] | [2] 13.2 µM [cytotoxic, partial curve, poor fit] | [3] 4.18 µM [cytotoxic, full curve, poor fit] | [14] 0.105 µM [cytotoxic, full curve, poor fit] | [10] 0.0019 µM [cytotoxic, full curve, poor fit]

c1ccc(-c2nn3c(c2-c2ccnc4cc(OCCN5CCOCC5)ccc24)CCC3)nc1
inactive: [13] | [5] | [7]
inconclusive: [1] 14.8 µM [rising, partial curve, poor fit] | [2] 23.5 µM [cytotoxic, partial curve, poor fit] | [3] 20.9 µM [cytotoxic, partial curve, poor fit] | [4] 13.2 µM [cytotoxic, partial curve, poor fit] | [15] 0.0059 µM [cytotoxic, full curve, poor fit] | [6] 10.5 µM [rising, full curve] | [9] 16.6 µM [cytotoxic, partial curve, poor fit] | [16] 23.5 µM [cytotoxic, partial curve, poor fit] | [17] 0.0033 µM [cytotoxic, full curve, poor fit] | [10] 14.8 µM [cytotoxic, partial curve, poor fit] | [11] 16.6 µM [cytotoxic, partial curve, poor fit] | [12] 37.2 µM [cytotoxic, single point]

Cc1cccc(-c2[nH]ncc2-c2ccc3ncccc3n2)n1
inconclusive: [1] 0.0059 µM [cytotoxic, full curve, poor fit] | [2] 37.2 µM [cytotoxic, single point] | [3] 0.148 µM [cytotoxic, full curve, poor fit] | [13] 0.332 µM [rising, full curve, poor fit] | [14] 0.0019 µM [cytotoxic, full curve, poor fit] | [5] 0.743 µM [cytotoxic, full curve, poor fit] | [6] 0.0418 µM [rising, full curve] | [7] 1.05 µM [rising, full curve, poor fit] | [9] 23.5 µM [cytotoxic, single point] | [11] 14.8 µM [cytotoxic, partial curve, poor fit] | [12] 18.7 µM [cytotoxic, partial curve, poor fit]
inactive: [8]

CCOc1cc(CC(=O)N[C@@H](CC(C)C)c2ccccc2N2CCCCC2)ccc1C(=O)O
inconclusive: [1] 1.05 µM [rising, full curve, poor fit] | [3] 3.72 µM [rising, partial curve, poor fit] | [13] 4.69 µM [cytotoxic, partial curve, poor fit] | [14] 0.001 µM | [15] 37.2 µM [cytotoxic, single point] | [8] 0.0047 µM [rising, full curve] | [10] 0.001 µM | [11] 0.0053 µM [rising, full curve, poor fit]
inactive: [2] | [12]

COc1c(O)cc2c(c1O)[C@@H]1O[C@H](CO)[C@@H](O)[C@H](O)[C@H]1OC2=O
inconclusive: [2] 1.18 µM [cytotoxic, full curve, poor fit] | [3] 4.69 µM [cytotoxic, full curve, poor fit] | [4] 0.0118 µM [cytotoxic, full curve, poor fit] | [6] 37.2 µM [rising, partial curve, poor fit]
inactive: [1] | [5] | [7] | [10]

CC(C)(C)OC(=O)N[C@H]1CCCCCC=C[C@@H]2C[C@@]2(C(=O)NS(=O)(=O)C2CC2)NC(=O)[C@@H]2C[C@@H](OC(=O)N3Cc4cccc(F)c4C3)CN2C1=O
inconclusive: [1] 23.5 µM [cytotoxic, partial curve, poor fit] | [2] 33.2 µM [cytotoxic, single point] | [3] 0.0332 µM [rising, full curve, poor fit] | [4] 0.0023 µM [rising, full curve, poor fit] | [8] 0.0033 µM [rising, full curve, poor fit] | [12] 0.0418 µM [rising, partial curve, poor fit]
not listed: [6] | [15] | [16] | [18]
inactive: all other assays above

Reference: PubChem BioAssay (NCATS)
